PubChem BioAssay AID1224828 – NIAID, 2016
Screen: 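Knock-downs that increase or decrease LPS-induced p65 nuclear translocation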 (primary screen). Cells: mouse RAW264.7 G9 macrophage reporter cells (GFP-p65, Tnf promoter-mCherry). Reagent: siRNA pool against mouse genes, 100 nM. Time to read-out: 2 days siRNA transfection, then 40 min LPS before fixation. Conditions: LPS (Salmonella minnesota R595) at 10 ng/ml. Measured: 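Imaged p65 nuclear translocation ratio, normalised to the plate median, converted to robust z-scores and averaged across two replicates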. Reading the numbers: p65 translocation robust z-score: higher = more nuclear NF-kappaB p65 after LPS than the plate median; nuclear/cytoplasmic p65 ratio: higher = more nuclear NF-kappaB p65. Rule for the call: 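Called active when z exceeds 3.3 or falls under -1.56 (median of Tlr4 controls), giving activity score of at least 50; no calls for control wells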. Meaning of the calls: active = hit (p65 shift raised or lowered); inactive = no clear change.
In all, the deposit lists about 17,000 reagents; below is an unselected part. Of all reagents, 762 (4.5%) were called active. 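Active calls include both raised and lowered p65 entry, mostly lowered; wells with fewer than 50 cells lack a z-score.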 The raw values are shown without normalisation. Unmarked entries are inactive. Reagents against one gene are numbered here. Some reagents were tested in more than one well and are listed for each.

gene | pool no. | p65 translocation robust z-score | nuclear/cytoplasmic p65 ratio, rep 1 | nuclear/cytoplasmic p65 ratio, rep 2 | low cell count flag
Fxr2 (FMR1 autosomal homolog 2) | 1 | -0.2 | 1.42 | 1.33 | enough cells to score
Rhbdf1 (rhomboid 5 homolog 1) | 1 | -0.83 | 1.29 | 1.13 | enough cells to score
Tbx22 (T-box 22) | 1 | 0.17 | 1.56 | 1.52 | enough cells to score
1700018B24Rik (RIKEN cDNA 1700018B24 gene) | 1 | 0.35 | 1.36 | 1.46 | enough cells to score
Teddm1a (transmembrane epididymal protein 1A) | 1 | 0.28 | 1.7 | 1.44 | enough cells to score
Arhgef39 (Rho guanine nucleotide exchange factor 39) | 1 | -0.88 | 1.43 | 1.2 | enough cells to score
Cldn23 (claudin 23) | 1 | -0.24 | 1.45 | 1.74 | enough cells to score
Coa4 (cytochrome c oxidase assembly factor 4) | 1 | -0.46 | 1.28 | 1.42 | enough cells to score
Vnn3 (vanin 3) | 1 | -0.55 | 1.28 | 1.2 | enough cells to score
Tinf2 (Terf1 (TRF1)-interacting nuclear factor 2) | 1 | 0.01 | 1.52 | 1.53 | enough cells to score
Or7a39 (olfactory receptor family 7 subfamily A member 39) | 1 | -0.04 | 1.62 | 1.42 | enough cells to score
Mical2 | 1 | -0.39 | 1.51 | 1.6 | enough cells to score
Grm2 (glutamate receptor, metabotropic 2) | 1 | 1.15 | 1.59 | 1.83 | enough cells to score
Krt4 (keratin 4) | 1 | -0.89 | 1.35 | 1.27 | enough cells to score
Pik3cb | 1 | 0.23 | 1.83 | 1.32 | enough cells to score
Pik3cb | 1 | 0.25 | 1.56 | 1.61 | enough cells to score
Pabpn1 (poly(A) binding protein, nuclear 1) | 1 | 0.02 | 1.45 | 1.42 | enough cells to score
Ppih (peptidyl prolyl isomerase H) | 1 | 0.41 | 1.42 | 1.27 | enough cells to score
Zfp532 (zinc finger protein 532) | 1 | -0.06 | 1.45 | 1.48 | enough cells to score
Cdh4 (cadherin 4) | 1 | -0.23 | 1.63 | 1.67 | enough cells to score
Sema5a | 1 | 1.46 | 1.59 | 1.42 | enough cells to score
Mtfr1 (mitochondrial fission regulator 1) | 1 | -0.55 | 1.37 | 1.47 | enough cells to score
Tdpoz3 (TD and POZ domain containing 3) | 1 | – | 1.37 | 1.22 | fewer than 50 cells per well; well left out of scoring
4930483J18Rik (RIKEN cDNA 4930483J18 gene) | 1 | – | 0 | 0 | fewer than 50 cells per well; well left out of scoring
A630005I04Rik (retired record) | 1 | – | 1.23 | 1.36 | fewer than 50 cells per well; well left out of scoring
Ywhag | 1 | 0.02 | 1.54 | 1.45 | enough cells to score
4930465K10Rik (RIKEN cDNA 4930465K10 gene) | 1 | – | 1.51 | 1.29 | fewer than 50 cells per well; well left out of scoring
Pou6f2 (POU domain, class 6, transcription factor 2) | 1 | 0.35 | 1.67 | 1.79 | enough cells to score
Or1ab2 (olfactory receptor family 1 subfamily AB member 2) | 1 | 0.47 | 1.68 | 1.33 | enough cells to score
Plxna4os2 (plexin A4, opposite strand 2) | 1 | – | 1.29 | 1.67 | fewer than 50 cells per well; well left out of scoring
Robo4 (roundabout guidance receptor 4) | 1 | – | 1.39 | 1.16 | fewer than 50 cells per well; well left out of scoring
Fam178b (family with sequence similarity 178, member B) | 1 | -0.29 | 1.27 | 1.48 | enough cells to score
Mdfi (MyoD family inhibitor) | 1 | – | 1.44 | 1.17 | fewer than 50 cells per well; well left out of scoring
Tmbim6 (transmembrane BAX inhibitor motif containing 6) | 1 | -0.45 | 1.45 | 1.37 | enough cells to score
L3mbtl4 (L3MBTL4 histone methyl-lysine binding protein) | 1 | – | 1.21 | 1.44 | fewer than 50 cells per well; well left out of scoring
L3mbtl4 (L3MBTL4 histone methyl-lysine binding protein) | 2 | -0.13 | 1.46 | 1.62 | enough cells to score
Ddx19a (DEAD box helicase 19a) | 1 | 0.67 | 1.68 | 1.63 | enough cells to score
Nap1l5 (nucleosome assembly protein 1-like 5) | 1 | 0.1 | 1.32 | 1.6 | enough cells to score
Bcs1l | 1 | -0.05 | 1.61 | 1.6 | enough cells to score
Peli3 (pellino 3) | 1 | -0.22 | 1.33 | 1.35 | enough cells to score

Part of the list above, set out differently.
Or7a39 (olfactory receptor family 7 subfamily A member 39)
- p65 translocation robust z-score: -0.04
- nuclear/cytoplasmic p65 ratio, rep 1: 1.62
- nuclear/cytoplasmic p65 ratio, rep 2: 1.42
- low cell count flag: enough cells to score

Mical2
- p65 translocation robust z-score: -0.39
- nuclear/cytoplasmic p65 ratio, rep 1: 1.51
- nuclear/cytoplasmic p65 ratio, rep 2: 1.6
- low cell count flag: enough cells to score

Grm2 (glutamate receptor, metabotropic 2)
- p65 translocation robust z-score: 1.15
- nuclear/cytoplasmic p65 ratio, rep 1: 1.59
- nuclear/cytoplasmic p65 ratio, rep 2: 1.83
- low cell count flag: enough cells to score

Krt4 (keratin 4)
- p65 translocation robust z-score: -0.89
- nuclear/cytoplasmic p65 ratio, rep 1: 1.35
- nuclear/cytoplasmic p65 ratio, rep 2: 1.27
- low cell count flag: enough cells to score

Pik3cb
- p65 translocation robust z-score: 0.23
- nuclear/cytoplasmic p65 ratio, rep 1: 1.83
- nuclear/cytoplasmic p65 ratio, rep 2: 1.32
- low cell count flag: enough cells to score
